Results from one PubChem assay

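A panel of P. falciparum strains inside erythrocytes is exposed to compounds for three days, then a DNA-binding dye reports the amount of parasite DNA. Each compound was titrated across a series from about 0.000037 to 29 µM. The number is the fitted AC50, the concentration giving a half-maximal change in signal; a lower value means higher potency, whether the curve shows a decrease or an increase. Calls follow the curve class and fit quality: every row here is inconclusive, covering signal-raising curves and weak, poorly fitted, partial or highest-dose-only inhibition curves.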

Values are in µM. Every entry below has the call inconclusive. Only part of the assay is shown, chiefly results filed as inconclusive. A potency from a partial, single-point or poor curve is only a rough figure.

{"compound": "NC(=O)c1cc([N+](=O)[O-])cc([N+](=O)[O-])c1", "setting": "CP329", "Potency (µM)": "13.46", "remark": "inhibitor, partial curve"}
{"compound": "NC(=O)c1cc([N+](=O)[O-])cc([N+](=O)[O-])c1", "setting": "DIV14", "Potency (µM)": "21.33", "remark": "inhibitor, partial curve, poor fit"}
{"compound": "NC(=O)c1cc([N+](=O)[O-])cc([N+](=O)[O-])c1", "setting": "PC15", "Potency (µM)": "12.59", "remark": "inhibitor, single point"}
{"compound": "NC(=O)c1cc([N+](=O)[O-])cc([N+](=O)[O-])c1", "setting": "3D7", "Potency (µM)": "12.59", "remark": "inhibitor, single point"}
{"compound": "NC(=O)c1cc([N+](=O)[O-])cc([N+](=O)[O-])c1", "setting": "CP325", "Potency (µM)": "13.46", "remark": "inhibitor, single point"}
{"compound": "NC(=O)c1cc([N+](=O)[O-])cc([N+](=O)[O-])c1", "setting": "N140", "Potency (µM)": "17.78", "remark": "inhibitor, single point"}
{"compound": "NC(=O)c1cc([N+](=O)[O-])cc([N+](=O)[O-])c1", "setting": "CP265", "Potency (µM)": "10", "remark": "inhibitor, single point"}
{"compound": "NC(=O)c1cc([N+](=O)[O-])cc([N+](=O)[O-])c1", "setting": "CP250", "Potency (µM)": "11.22", "remark": "inhibitor, single point"}
{"compound": "NC(=O)c1cc([N+](=O)[O-])cc([N+](=O)[O-])c1", "setting": "CP262", "Potency (µM)": "19.01", "remark": "inhibitor, single point"}
{"compound": "NC(=O)c1cc([N+](=O)[O-])cc([N+](=O)[O-])c1", "setting": "GB4", "Potency (µM)": "8.492", "remark": "inhibitor, partial curve"}
{"compound": "NC(=O)c1cc([N+](=O)[O-])cc([N+](=O)[O-])c1", "setting": "ATS189", "Potency (µM)": "10", "remark": "inhibitor, single point"}
{"compound": "NC(=O)c1cc([N+](=O)[O-])cc([N+](=O)[O-])c1", "setting": "CP247", "Potency (µM)": "10", "remark": "inhibitor, single point"}
{"compound": "NC(=O)c1cc([N+](=O)[O-])cc([N+](=O)[O-])c1", "setting": "PC26", "Potency (µM)": "6.746", "remark": "inhibitor, partial curve"}
{"compound": "NC(=O)c1cc([N+](=O)[O-])cc([N+](=O)[O-])c1", "setting": "CP252", "Potency (µM)": "10", "remark": "inhibitor, single point"}
{"compound": "NC(=O)c1cc([N+](=O)[O-])cc([N+](=O)[O-])c1", "setting": "ICS", "Potency (µM)": "10", "remark": "inhibitor, single point"}
{"compound": "NC(=O)c1cc([N+](=O)[O-])cc([N+](=O)[O-])c1", "setting": "CP237", "Potency (µM)": "17.78", "remark": "inhibitor, single point"}
{"compound": "NC(=O)c1cc([N+](=O)[O-])cc([N+](=O)[O-])c1", "setting": "CP191", "Potency (µM)": "8.912", "remark": "inhibitor, single point"}
{"compound": "NC(=O)c1cc([N+](=O)[O-])cc([N+](=O)[O-])c1", "setting": "CP335", "Potency (µM)": "19.01", "remark": "inhibitor, single point"}
{"compound": "NC(=O)c1cc([N+](=O)[O-])cc([N+](=O)[O-])c1", "setting": "DFO2036", "Potency (µM)": "11.22", "remark": "inhibitor, partial curve"}
{"compound": "Oc1cc[c]([Hg][Cl])cc1", "setting": "CP256", "Potency (µM)": "12.59", "remark": "inhibitor, single point"}
{"compound": "Oc1cc[c]([Hg][Cl])cc1", "setting": "CP191", "Potency (µM)": "10", "remark": "inhibitor, single point"}
{"compound": "Oc1cc[c]([Hg][Cl])cc1", "setting": "CP252", "Potency (µM)": "11.22", "remark": "inhibitor, single point"}
{"compound": "Oc1cc[c]([Hg][Cl])cc1", "setting": "PC26", "Potency (µM)": "12", "remark": "inhibitor, partial curve"}
{"compound": "Oc1cc[c]([Hg][Cl])cc1", "setting": "CP237", "Potency (µM)": "12.59", "remark": "inhibitor, single point"}
{"compound": "Oc1cc[c]([Hg][Cl])cc1", "setting": "CP201", "Potency (µM)": "15.1", "remark": "inhibitor, single point"}
{"compound": "Oc1cc[c]([Hg][Cl])cc1", "setting": "CP250", "Potency (µM)": "10", "remark": "inhibitor, single point"}
{"compound": "Oc1cc[c]([Hg][Cl])cc1", "setting": "ATS95", "Potency (µM)": "11.22", "remark": "inhibitor, single point"}
{"compound": "Oc1cc[c]([Hg][Cl])cc1", "setting": "CP305", "Potency (µM)": "13.46", "remark": "inhibitor, single point"}

The last 3 entries again:

{"compound": "Oc1cc[c]([Hg][Cl])cc1", "setting": "CP250", "Potency (µM)": "10", "remark": "inhibitor, single point"}
{"compound": "Oc1cc[c]([Hg][Cl])cc1", "setting": "ATS95", "Potency (µM)": "11.22", "remark": "inhibitor, single point"}
{"compound": "Oc1cc[c]([Hg][Cl])cc1", "setting": "CP305", "Potency (µM)": "13.46", "remark": "inhibitor, single point"}

From PubChem BioAssay record AID504749 (NCATS, 2011).